In PubChem BioAssay AID1347076 (National Center for Advancing Translational Sciences (NCATS), 2019):
Out of some 400,000 compounds screened, about 13,000 (3.2%) were called active. The shares of active, inactive and inconclusive entries below differ from those in the screen. Calls follow the shape of the dose curve; as a rule, active = well fitted cell-killing curve with a large enough effect; inconclusive = small, poorly fitted or top-dose-only effect, or effect the other way; inactive = flat fitted curve, though single readings scatter. Potencies beside an inconclusive call are fits to weak or partial responses and may not hold up.

assay: qHTS assay for MDR1-selective chemotherapeutics: Primary screen using the drug-selected MDR subline cells KB-V1; details: KB-V1 MDR cells viability, CellTiter-Glo, 72 h; activity change, negative = cytotoxicity: at 46.1 µM (top of the series); also: nearly all actives have a fitted effect of over 60% in size
How it was run: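 Cytotoxicity via CellTiter-Glo luminescence after 72 h compound exposure at 37 degrees C. Cells: drug-selected KB-V1 line, DMEM phenol-red free plus 10% FBS. Compounds tested at multiple concentrations; normalized data fitted to concentration-effect curves.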
% is scaled to controls: 0 for no effect and ±100 for the full control effect; potency is read from the fitted curve at half-maximal effect.

**Q.** With COc1cc(Cl)cc(C=O)c1OCC(=O)O as the molecule, how does the Potency read?
**A.** inactive

**Q.** For C[C@@H]1CN(S(=O)C(C)(C)C)[C@H](CCO)/C1=C\CCO (stereo not given in full), which Potency is on record?
**A.** inconclusive: 0.0058 µM [rising, full curve, poor fit]

**Q.** Which Potency does the source give for COc1ccc(Cn2c(=O)[nH]c3cc(C(=O)NC4CCN(Cc5ccccc5)CC4)ccc32)cc1 here?
**A.** inactive

**Q.** With CCCCn1c(N)c(-c2nc3ccccc3s2)c2c([N+](=O)[O-])nn(CC)c(=O)c21 as the molecule, how does the Potency read?
**A.** inconclusive: 2.06 µM [cytotoxic, full curve]

**Q.** For COC(=O)c1cc(NC(=O)C2COc3ccccc3O2)ccc1Cl (stereo not given), which Potency is on record?
**A.** inconclusive: 29.1 µM [cytotoxic, single point]

**Q.** For CCN(CC)C(=O)CN(c1cc(Cl)ccc1OC)S(C)(=O)=O, which Potency is on record?
**A.** inconclusive: 25.9 µM [cytotoxic, partial curve, poor fit]

**Q.** With Cc1nn(Cc2ccccc2)c(C)c1NC(=O)CSc1nc(C2CC2)nc2c1cnn2-c1ccccc1 as the molecule, how does the Potency read?
**A.** inconclusive: 20.6 µM [cytotoxic, single point]

**Q.** For O=C(COc1ncnc2cc([N+](=O)[O-])ccc12)NCCc1ccc(Cl)cc1, which Potency is on record?
**A.** inconclusive: 16.4 µM [cytotoxic, single point]

**Q.** With Cc1ccc(C(=O)Nc2ccc(S(=O)(=O)Nc3cnc4ccccc4n3)cc2)cc1 as the molecule, how does the Potency read?
**A.** inconclusive: 18.4 µM [cytotoxic, single point]

**Q.** With CC(=O)Nc1ccc(NC(=O)C(C)OC(=O)/C=C/c2cn(-c3ccccc3)nc2-c2cccnc2)cc1 (stereo not given) as the molecule, how does the activity change, negative = cytotoxicity read?
**A.** inconclusive: -20.7%

**Q.** With CC(=O)c1cc(C(=O)NC2CCCc3c2cnn3-c2cc(C)cc(C)c2)[nH]n1 (stereo not given) as the molecule, how does the Potency read?
**A.** inconclusive: 11.6 µM [cytotoxic, partial curve]

**Q.** With COc1ccccc1OCCNC(=O)C(CCSC)NC(=O)COc1ccccc1 (stereo not given) as the molecule, how does the Potency read?
**A.** inconclusive: 7.31 µM [cytotoxic, partial curve]

**Q.** With COc1cc2c(cc1OC)C(COc1ccccc1OC)N(C(=O)C(C)C)CC2 (stereo not given) as the molecule, how does the Potency read?
**A.** inconclusive: 6.51 µM [cytotoxic, partial curve]

**Q.** With O=C(/C=C/c1cccs1)N1CCN(Cc2ccc3c(c2)OCO3)CC1 as the molecule, how does the Potency read?
**A.** active: 18.4 µM

**Q.** Which Potency does the source give for COc1ccc(OCC(=O)NS(=O)(=O)c2ccc(Cl)cc2)cc1 here?
**A.** inconclusive: 2.06 µM [rising, partial curve, poor fit]

**Q.** With CN(C)C(=S)NC(=O)C12CC3(C)CC(C)(CC(C)(C3)C1)C2 as the molecule, how does the Potency read?
**A.** inactive

**Q.** With CCOC(=O)N1CCN(C2CC(=O)N(c3ccc(Cl)c(Cl)c3)C2=O)CC1 (stereo not given) as the molecule, how does the Potency read?
**A.** inconclusive: 8.2 µM [rising, partial curve, poor fit]

**Q.** For CC(=O)Nc1ccc(-c2nnn(CC(=O)Nc3ccc4c(c3)OCO4)n2)cc1Cl, which Potency is on record?
**A.** inconclusive: 2.91 µM [cytotoxic, partial curve, poor fit]

**Q.** Which Potency does the source give for Cc1cc(C)cc(OCc2nnc(SCC(=O)N3CCCCC3)o2)c1 here?
**A.** inconclusive: 10.3 µM [cytotoxic, partial curve, poor fit]

**Q.** Which Potency does the source give for CCN=C1S/C(=C\c2cn(C(C)=O)nc2-c2ccccc2)C(=O)N1CC here?
**A.** active: 18.4 µM

**Q.** For CC1(C(=O)Nc2ccc(Cl)c(Cl)c2)CCN1C(=O)Cc1cccc2ccccc12 (stereo not given), which Potency is on record?
**A.** inconclusive: 29.1 µM [cytotoxic, single point]

**Q.** For Cn1c(=O)c2[nH]c(C3CCC3)nc2n(C)c1=O, which Potency is on record?
**A.** inconclusive: 18.4 µM [cytotoxic, single point]

**Q.** With CCOc1cccc(CNCCNC(=O)c2nonc2N)c1 as the molecule, how does the Potency read?
**A.** inconclusive: 20.6 µM [cytotoxic, single point]

**Q.** For Cc1cccc(CNS(=O)(=O)c2csc(C(N)=O)c2)c1, which Potency is on record?
**A.** inconclusive: 29.1 µM [rising, single point]

**Q.** With O=C(/C=C/c1ccc([N+](=O)[O-])cc1)OCC(=O)N1CCCCCC1 as the molecule, how does the Potency read?
**A.** inactive

**Q.** With CC1(C)CC(=O)C2=C(C1)OC(N)=C(C#N)C2c1ccccc1[N+](=O)[O-] (stereo not given) as the molecule, how does the Potency read?
**A.** inactive

**Q.** For CCN(CC)C(=O)Cn1cc(C(=O)C(=O)Nc2ccc3c(c2)OCCO3)c2ccccc21, which Potency is on record?
**A.** inconclusive: 29.1 µM [cytotoxic, single point]

**Q.** For CCOC(=O)c1cnc(SC)nc1Oc1cccc(NS(=O)(=O)c2ccc(C)cc2)c1, which Potency is on record?
**A.** inactive

**Q.** Which Potency does the source give for CCOC(=O)c1[nH]c(C)c(CCC(=O)Nc2ccc(C(C)=O)cc2)c1C here?
**A.** inconclusive: 16.4 µM [rising, single point]

**Q.** With COc1cccc(/C=C2\SC(=S)N(CCCC(=O)Nc3cc(C)on3)C2=O)c1 as the molecule, how does the Potency read?
**A.** inconclusive: 1.84 µM [rising, single point]

**Q.** Which Potency does the source give for Cc1ccc(N(CC(=O)NCc2ccccn2)S(=O)(=O)c2ccccc2)cc1C here?
**A.** inconclusive: 6.51 µM [cytotoxic, partial curve, poor fit]

**Q.** With O=S(=O)(Nc1cccc(-c2ccc(N3CCCCCC3)nn2)c1)c1ccc(F)cc1 as the molecule, how does the Potency read?
**A.** inactive

**Q.** Which Potency does the source give for COc1cc(SC)ccc1C(=O)N1CCN(c2ccccc2F)CC1 here?
**A.** inconclusive: 20.6 µM [cytotoxic, single point]

**Q.** For CCOC(=O)c1cc(C(=O)OCC)c(=O)[nH]c1N1CCCC1, which Potency is on record?
**A.** inconclusive: 16.4 µM [cytotoxic, partial curve, poor fit]

**Q.** With Cc1ccc(C)c(S(=O)(=O)N2CCCCC2CCNC(=O)C(=O)NCc2cccnc2)c1 (stereo not given) as the molecule, how does the Potency read?
**A.** inconclusive: 8.2 µM [cytotoxic, partial curve]

**Q.** Which Potency does the source give for CCn1ccnc1CNC(=O)CC1C(=O)NCCN1CC(c1ccccc1)c1ccccc1 (stereo not given) here?
**A.** inconclusive: 20.6 µM [rising, single point]

**Q.** With CC(=O)Nc1cccc(-c2ccnc3c2CC(C)(C(=O)Nc2ccc4c(c2)OCO4)O3)c1 (stereo not given) as the molecule, how does the Potency read?
**A.** active: 8.2 µM

**Q.** Which Potency does the source give for Cc1ccc(-n2nc3c(c2NC(=O)c2ccc(S(=O)(=O)N4CCOCC4)cc2)CSC3)c(C)c1 here?
**A.** inactive

**Q.** For COc1ccc(C)cc1S(=O)(=O)N(C)CC(=O)N1CCCCC1, which Potency is on record?
**A.** inconclusive: 10.3 µM [cytotoxic, partial curve]

**Q.** With CCOC(=O)c1ccc(N/N=C/c2cc(Br)cc([N+](=O)[O-])c2O)cc1 as the molecule, how does the Potency read?
**A.** inconclusive: 20.6 µM [cytotoxic, single point]

**Q.** With Oc1c(C(c2ccccn2)N2CCC(Cc3ccccc3)CC2)cc(Cl)c2cccnc12 (stereo not given) as the molecule, how does the Potency read?
**A.** active: 2.59 µM

**Q.** With CCOC(=O)C1OC1(c1ccccc1)c1ccccc1 (stereo not given) as the molecule, how does the Potency read?
**A.** inactive

**Q.** Which Potency does the source give for Cc1ccc2c(CC(=O)NCc3ccccc3)coc2c1C here?
**A.** inconclusive: 20.6 µM [cytotoxic, single point]

**Q.** Which Potency does the source give for Cn1ccnc1C(OC(=O)c1ccccc1)C(F)(F)F (stereo not given) here?
**A.** inactive

**Q.** For O=C(O)c1ccccc1OC(=O)C12CC3CC(CC(C3)C1)C2, which Potency is on record?
**A.** inconclusive: 29.1 µM [rising, single point]

**Q.** For CCOC(=O)C1=C[C@@H](C(C)(C)C)N(S(=O)(=O)c2ccc(C)cc2)[C@H]1c1ccc(C)cc1, which Potency is on record?
**A.** inactive

**Q.** Which Potency does the source give for O=C(NCc1cccnc1)c1cc(Sc2ccc(F)cc2F)nc2ccccc12 here?
**A.** inactive

**Q.** With CC(=O)c1sc2nc(C)c3c(c2c1N)CCCC3 as the molecule, how does the Potency read?
**A.** inconclusive: 29.1 µM [cytotoxic, single point]

**Q.** For COc1c(Cl)c(=O)oc2ccc(Cl)cc12, which Potency is on record?
**A.** inactive

**Q.** Which Potency does the source give for Cc1ccc(C)n1-c1c(C(=O)NCC(C)c2ccccc2)sc2ncccc12 (stereo not given) here?
**A.** inactive

**Q.** For O=C(COC(=O)Cc1ccccc1[N+](=O)[O-])Nc1nnc(-c2ccccc2)o1, which Potency is on record?
**A.** inconclusive: 29.1 µM [cytotoxic, single point]

**Q.** For CCCCCc1c(-c2ccccc2OC)ncn1CCc1ccccc1OC, which Potency is on record?
**A.** active: 11.6 µM

**Q.** For COc1ccc(CCNC(=O)c2ccc(N3CCCC3=O)cc2)cc1, which Potency is on record?
**A.** inconclusive: 18.4 µM [cytotoxic, single point]

**Q.** Which Potency does the source give for Cc1cccc(-c2noc(CNC(=O)c3ccc4c(c3)OCO4)n2)c1 here?
**A.** inconclusive: 25.9 µM [rising, partial curve, poor fit]

**Q.** For C1=C(c2sc3ccccc3c2-c2ccc(OCCN3CCOCC3)cc2)CCCC1, which Potency is on record?
**A.** inconclusive: 29.1 µM [cytotoxic, partial curve, poor fit]

**Q.** Which activity change, negative = cytotoxicity does the source give for Cc1ccsc1/C=N/NC(=O)Cc1cc(=O)[nH][nH]1 here?
**A.** inconclusive: 58.1%

**Q.** Which Potency does the source give for C=CCNC(=O)C1CC2Cn3c(nc4cc5ccccc5cc43)C2N1C (stereo not given) here?
**A.** inconclusive: 29.1 µM [rising, single point]

**Q.** With O=[N+]([O-])c1cccc(S(=O)(=O)NCCc2cccs2)c1 as the molecule, how does the Potency read?
**A.** inconclusive: 32.6 µM [rising, single point]

**Q.** Which Potency does the source give for CNC(=O)/C(C#N)=C1\SC(Cc2ccc(F)cc2)C(=O)N1c1ccccc1C (stereo not given) here?
**A.** inactive

**Q.** With CC(c1ccon1)N(C)Cc1cn(C)nc1-c1cccc(Cl)c1 (stereo not given) as the molecule, how does the Potency read?
**A.** inconclusive: 20.6 µM [cytotoxic, single point]

**Q.** Which Potency does the source give for COc1ccc(-c2cnnn2-c2ccc([N+](=O)[O-])cc2)cc1 here?
**A.** inactive

**Q.** With COc1cccc(-c2nc(=S)c3c(o2)CCCC3)c1 as the molecule, how does the Potency read?
**A.** inactive

**Q.** Which Potency does the source give for CCc1ccccc1N(C)C(=O)CCc1nc(-c2ccc(C)cc2)no1 here?
**A.** active: 18.4 µM

**Q.** For Cn1cccc1CC(=O)N/N=C\c1c2ccccc2cc2ccccc12, which Potency is on record?
**A.** inactive

**Q.** Which Potency does the source give for CC(C)[C@H]1c2ccc(F)cc2CC[C@@]1(CCN(C)CCCc1nc2ccccc2[nH]1)OC(=O)C1CC1 here?
**A.** active: 20.6 µM

**Q.** With CCCC(C)c1oc(=O)cc(O)c1C (stereo not given) as the molecule, how does the Potency read?
**A.** inactive

**Q.** With O=C(Nc1ccc(C(F)(F)F)cc1)c1cc(S(=O)(=O)NC2CCCCC2)ccc1F as the molecule, how does the Potency read?
**A.** inconclusive: 20.6 µM [cytotoxic, single point]

**Q.** Which Potency does the source give for COc1ccc(-c2csc3ncn(-c4ccc(C)cc4)c(=O)c23)cc1OC here?
**A.** inconclusive: 9.2 µM [cytotoxic, partial curve, poor fit]

**Q.** For O=C(COc1ccccc1)Nc1ccc(S(=O)(=O)N2CCCCCC2)cc1, which Potency is on record?
**A.** active: 16.4 µM

**Q.** For COc1ccc(CCNC(=O)CSc2ccsc2[N+](=O)[O-])c(OC)c1, which activity change, negative = cytotoxicity is on record?
**A.** inconclusive: -2.64%
